Data source: PubChem BioAssay AID1508597 (Cure First, 2020)

- Purpose: 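Survival screen with siRNA in ovarian cancer cells derived from patients, with or without rucaparib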 (primary screen)
- Cell system: human ovarian carcinoma lines grown from tumours: OCI-P5x (papillary serous) and OCI-C5x (clear cell)
- Reagent: siRNA pool against human genes, 1.25 pmol siRNA per well
- Timing: 72 h or 96 h, depending on the cell culture
- Conditions: rucaparib 20 µM (about IC30) or vehicle, present until read-out
- Rucaparib or vehicle: Vehicle
- Cell line: OCI-C5x (clear cell)
- Detection: 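Luminescent ATP-based viability assay read 72 or 96 h after transfection, depending on culture, given as normalised percent viability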
- Reading the numbers: viability, normalised: higher = more viable cells remaining
- Call rule: 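Active when normalised viability falls below 80 percent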
- Calls: active = viability under 80%; inactive = viability 80% or more
Shown is a random part of the about 2,100 reagents, under one of the conditions tested. 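Calls flag viability under 80% in either arm, not effects specific to rucaparib; the reference for percent is not stated.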 Entries without a mark were called inactive. The record does not give: the 100% reference.

NFAM1, technical replicate 1: viability, normalised (%) = 45.4 (active)
NFAM1, technical replicate 2: viability, normalised (%) = 58.9 (active)
NFAM1, technical replicate 3: viability, normalised (%) = 55.2 (active)
ARX, technical replicate 1: viability, normalised (%) = 40.5 (active)
ARX, technical replicate 2: viability, normalised (%) = 39.3 (active)
ARX, technical replicate 3: viability, normalised (%) = 40 (active)
GDAP2, technical replicate 1: viability, normalised (%) = 45.9 (active)
GDAP2, technical replicate 2: viability, normalised (%) = 40.9 (active)
GDAP2, technical replicate 3: viability, normalised (%) = 31.2 (active)
PCDHB10, technical replicate 1: viability, normalised (%) = 58 (active)
PCDHB10, technical replicate 2: viability, normalised (%) = 49.3 (active)
PCDHB10, technical replicate 3: viability, normalised (%) = 75.7 (active)
